Results are given in words; binding and its absence hold for the method and conditions named. Binding seen in cells or lysates may run through a third protein. Some results given as binding are weak or reduced against the parent protein; the word gives no strength.

The chains behind the UniProt entries cited, without tags or fusion partners.
UniProt Q08012: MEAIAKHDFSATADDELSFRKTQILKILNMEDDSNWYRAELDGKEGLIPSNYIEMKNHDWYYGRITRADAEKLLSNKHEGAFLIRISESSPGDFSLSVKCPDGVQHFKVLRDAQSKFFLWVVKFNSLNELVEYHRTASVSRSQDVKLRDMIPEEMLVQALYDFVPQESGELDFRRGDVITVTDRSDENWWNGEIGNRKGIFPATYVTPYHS

This is an account of results in publication PMC3038869.

In the assay the target is T1, Epidermal Growth Factor Receptor (EGFR), Drosophila, endogenous (Drosophila (endogenous in ovaries)) (UniProt P04412).
T1 sequence: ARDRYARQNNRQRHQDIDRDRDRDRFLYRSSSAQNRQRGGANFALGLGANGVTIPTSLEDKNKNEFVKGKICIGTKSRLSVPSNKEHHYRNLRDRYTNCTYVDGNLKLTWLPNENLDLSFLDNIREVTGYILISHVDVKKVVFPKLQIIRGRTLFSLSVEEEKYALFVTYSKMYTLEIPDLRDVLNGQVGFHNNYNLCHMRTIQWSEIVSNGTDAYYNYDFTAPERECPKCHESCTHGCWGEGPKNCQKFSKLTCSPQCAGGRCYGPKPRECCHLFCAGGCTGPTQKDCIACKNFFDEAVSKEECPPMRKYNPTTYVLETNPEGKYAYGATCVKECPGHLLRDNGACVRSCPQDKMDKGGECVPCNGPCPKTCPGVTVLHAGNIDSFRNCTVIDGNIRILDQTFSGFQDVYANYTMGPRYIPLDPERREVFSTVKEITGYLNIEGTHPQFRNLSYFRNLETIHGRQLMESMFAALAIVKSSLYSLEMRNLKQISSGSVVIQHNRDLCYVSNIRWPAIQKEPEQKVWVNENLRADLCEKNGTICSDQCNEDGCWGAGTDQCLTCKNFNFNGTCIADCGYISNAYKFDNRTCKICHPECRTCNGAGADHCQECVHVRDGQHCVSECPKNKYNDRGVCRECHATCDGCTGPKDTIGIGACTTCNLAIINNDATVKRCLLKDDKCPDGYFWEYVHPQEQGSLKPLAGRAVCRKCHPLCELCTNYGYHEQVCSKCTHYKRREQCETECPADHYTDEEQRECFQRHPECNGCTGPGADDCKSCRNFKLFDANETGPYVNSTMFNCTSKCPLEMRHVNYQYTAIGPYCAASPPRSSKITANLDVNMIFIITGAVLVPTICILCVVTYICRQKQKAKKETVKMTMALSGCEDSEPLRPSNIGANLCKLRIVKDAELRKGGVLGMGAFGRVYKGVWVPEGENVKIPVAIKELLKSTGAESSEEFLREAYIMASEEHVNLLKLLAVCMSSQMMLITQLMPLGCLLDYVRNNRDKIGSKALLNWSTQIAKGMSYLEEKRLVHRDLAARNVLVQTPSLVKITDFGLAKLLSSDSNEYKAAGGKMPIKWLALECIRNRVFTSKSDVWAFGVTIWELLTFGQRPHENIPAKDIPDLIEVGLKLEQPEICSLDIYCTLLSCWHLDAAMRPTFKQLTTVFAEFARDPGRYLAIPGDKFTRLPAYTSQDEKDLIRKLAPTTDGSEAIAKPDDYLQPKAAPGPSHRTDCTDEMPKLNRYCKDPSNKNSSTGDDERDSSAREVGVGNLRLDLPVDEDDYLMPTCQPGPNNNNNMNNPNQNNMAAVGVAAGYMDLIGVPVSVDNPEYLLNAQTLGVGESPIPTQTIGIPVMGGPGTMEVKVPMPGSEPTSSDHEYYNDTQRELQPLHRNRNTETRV
The assay is described as follows: co-IP; ovarian lysates of wild-type females or females expressing D-CblL or RING-SH2^Drk in follicle cells, immunoprecipitated with mouse monoclonal anti-EGFR, 4°C; blotted with rabbit anti-EGFR and anti-Drk.

“Drk (Downstream of receptor kinase), endogenous (from UniProt Q08012 1-211)”: the binding result was “binds”.
